# Hit rate of the full screen: of about 1,200 compounds, about 650 (54%) were called active. Inconclusive results (about 5%) are left out.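 The calls were made as follows: active = signal-lowering curve whose fitted half-maximal concentration is at or below ten times the top valid dose tested; inconclusive = flat curve with 30 to 70% inhibition, or poor fit; inactive = signal increase, flat within 30%, or potency beyond limit.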 The set was probably picked from earlier hits. The list shows a part of the results, in another mix than the full data. Results with a measured potency or affinity are listed apart.
# Assay: inhibitors of LMP1-driven NF-kB reporter, dose response, cell-based, HEK293, luciferase, cherry-pick (AID 588343);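 also: 0% = median of neutral control wells and -100% = MG132 positive control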
# Conditions: HEK293 LMP1 TES2 NF-kB luciferase reporter, 16 h; at 35 µM (top of the series)
row,SMILES,"activity change, negative = inhibition"
1,O=c1cccc2n1CC1CC2CN(Cc2c(F)cccc2Cl)C1 (configuration not stated),inactive: 8.9%
2,Cc1nc2ccccc2n1C1CCN(Cc2nnnn2CCc2ccccc2)CC1,inactive: -14.6%
3,C#C[C@]1(O)CC[C@H]2[C@@H]3CCC4=CC(=O)CC[C@]4(C)[C@H]3CC[C@@]21C,inactive: 21%
4,CC(=O)N(C)C1=Nc2ccc(Cl)cc2C(c2ccccc2)=[N+]([O-])C1,inactive: -13.9%
5,CCN1C[C@]2(COC)CC[C@H](OC)[C@@]34C1[C@]1(OCO[C@@]15C[C@H](OC)[C@H]1C[C@@H]3[C@@H]5[C@H]1OC)[C@@H](O)[C@H]24,inactive: -0.915%
6,O=C(N/N=C/C1C(=O)NC(=S)N(c2ccccc2)C1=O)c1cc(Br)c(O)c(Br)c1 (configuration not stated),inactive: -11.4%
7,COc1ccc(CCNCc2cccn2C)cc1,inactive: 5.47%
8,COc1ccc(OC)c([C@@H](O)[C@H](C)NC(C)(C)C)c1,inactive: -4.69%
9,O=C(N/N=C/c1c(O)n(C2CCCCC2)c(=S)[nH]c1=O)c1ccccc1O,inactive: -3.31%
10,COC(=O)C1=C(c2ccc(F)cc2OCc2ccccc2)C[C@@H]2CC[C@H]1N2C(=O)NC(C)C,inactive: -9.45%
11,C[N+]1(C)[C@@H]2CC[C@H]1CC(OC(=O)C(CO)c1ccccc1)C2 (some centres not stated),inactive: 1.26%
12,CCN(CC)CCCN=Cc1c(O)n(Cc2ccc(F)cc2)c(=O)[nH]c1=O,inactive: -8.31%
13,O=C(O)CCCOc1ccc(Cl)cc1Cl,inactive: -4.85%
14,CC1(C(=O)O)CC12c1ccccc1-c1ccccc12 (configuration not stated),inactive: -11.7%
15,C[C@@H]1CN(C2CCC(C#N)(c3ccc(F)cc3)CC2)CC[C@]1(C(=O)O)c1ccccc1 (some centres not stated),inactive: 14.2%
16,CN1[C@@H]2CC[C@H]1CC(OC(=O)C1C=Nc3ccccc31)C2 (some centres not stated),inactive: 36.6%
17,Fc1ccc(C(OCCN2CCCC2)c2ccc(F)cc2)cc1,inactive: 17.2%
18,CCN1C[C@]2(C)CC[C@H](O)[C@]34C1[C@H](C[C@H]23)[C@@]1(O)C[C@H](OC)[C@H]2C[C@@H]4[C@@H]1C2O (some centres not stated),inactive: -5.52%
19,COC(=O)C1C2CC[C@@H](CC1OC(=O)c1ccccc1)N2 (some centres not stated),inactive: 1.78%
20,O=[N+]([O-])c1ccc(CN2CC=C(c3ccccc3)CC2)cc1,inactive: 30.1%
21,COC(=O)C1=C(c2ccc3ccccc3c2)C[C@@H]2CC[C@H]1N2C(=O)N1CCC(O)CC1,inactive: -5.03%
22,COc1c2c(cc3c1OCO3)CCN(C)C2,inactive: 8.11%

# Entries shown so far that contain an NH in an aromatic ring:
row,SMILES,"activity change, negative = inhibition"
9,O=C(N/N=C/c1c(O)n(C2CCCCC2)c(=S)[nH]c1=O)c1ccccc1O,inactive: -3.31%
12,CCN(CC)CCCN=Cc1c(O)n(Cc2ccc(F)cc2)c(=O)[nH]c1=O,inactive: -8.31%

# Reference: PubChem BioAssay AID588343 (Broad Institute, 2011)
